Measurements as given in the supplement of paper PMC11732987, “Enantioselective OTUD7B fragment discovery through chemoproteomics screening and high-throughput optimisation” (Communications Chemistry, 2025).
Some of the results follow. The data scatter; read single values as rough.

By UniProt entry, the sequences of proteins in these tests, tags left out. Where a name states a change or a piece, a line headed by the entry shows the natural chain unless it says otherwise. Residues count along the entry.
UniProt Q09666, 1880-1904: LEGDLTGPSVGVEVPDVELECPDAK
UniProt P55265: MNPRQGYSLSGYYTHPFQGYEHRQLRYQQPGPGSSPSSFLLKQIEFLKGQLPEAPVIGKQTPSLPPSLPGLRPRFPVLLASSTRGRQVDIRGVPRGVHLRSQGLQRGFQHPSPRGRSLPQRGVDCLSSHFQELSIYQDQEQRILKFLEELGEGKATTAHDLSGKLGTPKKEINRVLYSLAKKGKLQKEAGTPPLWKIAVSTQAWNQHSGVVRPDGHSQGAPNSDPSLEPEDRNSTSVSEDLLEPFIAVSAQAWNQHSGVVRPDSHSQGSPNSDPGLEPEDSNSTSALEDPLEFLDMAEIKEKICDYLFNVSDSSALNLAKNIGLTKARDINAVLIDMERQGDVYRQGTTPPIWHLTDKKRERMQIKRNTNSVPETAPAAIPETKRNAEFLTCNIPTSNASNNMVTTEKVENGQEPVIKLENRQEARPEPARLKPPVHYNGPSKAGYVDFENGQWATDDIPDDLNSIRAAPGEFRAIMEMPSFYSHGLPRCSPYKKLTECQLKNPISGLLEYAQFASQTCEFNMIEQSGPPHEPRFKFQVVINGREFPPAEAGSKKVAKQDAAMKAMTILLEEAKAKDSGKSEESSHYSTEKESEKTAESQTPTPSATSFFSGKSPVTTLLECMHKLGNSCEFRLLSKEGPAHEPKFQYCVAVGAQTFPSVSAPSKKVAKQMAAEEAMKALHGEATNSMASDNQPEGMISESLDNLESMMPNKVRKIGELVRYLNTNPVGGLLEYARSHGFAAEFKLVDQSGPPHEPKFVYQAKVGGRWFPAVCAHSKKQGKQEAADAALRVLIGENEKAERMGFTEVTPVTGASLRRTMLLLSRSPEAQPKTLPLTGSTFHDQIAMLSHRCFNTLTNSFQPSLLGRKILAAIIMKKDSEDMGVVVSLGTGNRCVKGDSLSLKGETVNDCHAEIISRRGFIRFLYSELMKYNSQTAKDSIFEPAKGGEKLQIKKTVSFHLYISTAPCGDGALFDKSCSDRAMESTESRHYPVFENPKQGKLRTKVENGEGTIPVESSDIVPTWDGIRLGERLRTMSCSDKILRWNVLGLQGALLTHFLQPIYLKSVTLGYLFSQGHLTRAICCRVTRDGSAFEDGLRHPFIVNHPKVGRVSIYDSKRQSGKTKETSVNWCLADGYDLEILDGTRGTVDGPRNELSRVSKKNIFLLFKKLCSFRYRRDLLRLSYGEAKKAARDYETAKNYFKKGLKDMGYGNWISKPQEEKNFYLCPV
UniProt Q9ULX6: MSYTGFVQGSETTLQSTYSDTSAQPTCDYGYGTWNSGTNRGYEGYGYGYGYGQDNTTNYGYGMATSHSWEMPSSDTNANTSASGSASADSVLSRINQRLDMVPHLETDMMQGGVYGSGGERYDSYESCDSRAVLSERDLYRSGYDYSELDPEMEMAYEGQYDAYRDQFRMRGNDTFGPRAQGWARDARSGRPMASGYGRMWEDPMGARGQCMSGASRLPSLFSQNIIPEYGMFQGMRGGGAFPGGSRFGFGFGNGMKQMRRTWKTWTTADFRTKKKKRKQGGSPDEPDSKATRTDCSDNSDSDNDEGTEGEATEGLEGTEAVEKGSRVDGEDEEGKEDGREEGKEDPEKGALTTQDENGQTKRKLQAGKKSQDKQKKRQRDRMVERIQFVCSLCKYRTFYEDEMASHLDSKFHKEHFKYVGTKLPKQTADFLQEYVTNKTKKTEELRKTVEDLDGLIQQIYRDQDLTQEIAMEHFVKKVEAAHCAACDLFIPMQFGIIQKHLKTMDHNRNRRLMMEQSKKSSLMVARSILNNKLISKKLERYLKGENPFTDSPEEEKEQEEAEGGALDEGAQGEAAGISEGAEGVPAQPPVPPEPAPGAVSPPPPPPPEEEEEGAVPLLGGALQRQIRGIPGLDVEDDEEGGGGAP
UniProt Q9H3P7: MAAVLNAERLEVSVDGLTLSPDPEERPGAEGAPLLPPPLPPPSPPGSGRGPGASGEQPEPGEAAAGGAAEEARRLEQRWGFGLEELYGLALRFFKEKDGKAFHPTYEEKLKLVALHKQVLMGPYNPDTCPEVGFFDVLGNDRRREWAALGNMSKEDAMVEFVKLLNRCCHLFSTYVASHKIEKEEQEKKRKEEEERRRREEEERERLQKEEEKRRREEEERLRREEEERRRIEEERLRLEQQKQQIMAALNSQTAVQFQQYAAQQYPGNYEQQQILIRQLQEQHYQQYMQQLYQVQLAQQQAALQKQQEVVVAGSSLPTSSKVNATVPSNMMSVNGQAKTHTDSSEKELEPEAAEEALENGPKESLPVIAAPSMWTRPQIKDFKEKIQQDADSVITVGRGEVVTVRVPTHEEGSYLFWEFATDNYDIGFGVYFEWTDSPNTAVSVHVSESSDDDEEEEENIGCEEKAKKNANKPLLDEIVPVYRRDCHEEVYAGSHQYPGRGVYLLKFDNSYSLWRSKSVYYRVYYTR
UniProt Q02952: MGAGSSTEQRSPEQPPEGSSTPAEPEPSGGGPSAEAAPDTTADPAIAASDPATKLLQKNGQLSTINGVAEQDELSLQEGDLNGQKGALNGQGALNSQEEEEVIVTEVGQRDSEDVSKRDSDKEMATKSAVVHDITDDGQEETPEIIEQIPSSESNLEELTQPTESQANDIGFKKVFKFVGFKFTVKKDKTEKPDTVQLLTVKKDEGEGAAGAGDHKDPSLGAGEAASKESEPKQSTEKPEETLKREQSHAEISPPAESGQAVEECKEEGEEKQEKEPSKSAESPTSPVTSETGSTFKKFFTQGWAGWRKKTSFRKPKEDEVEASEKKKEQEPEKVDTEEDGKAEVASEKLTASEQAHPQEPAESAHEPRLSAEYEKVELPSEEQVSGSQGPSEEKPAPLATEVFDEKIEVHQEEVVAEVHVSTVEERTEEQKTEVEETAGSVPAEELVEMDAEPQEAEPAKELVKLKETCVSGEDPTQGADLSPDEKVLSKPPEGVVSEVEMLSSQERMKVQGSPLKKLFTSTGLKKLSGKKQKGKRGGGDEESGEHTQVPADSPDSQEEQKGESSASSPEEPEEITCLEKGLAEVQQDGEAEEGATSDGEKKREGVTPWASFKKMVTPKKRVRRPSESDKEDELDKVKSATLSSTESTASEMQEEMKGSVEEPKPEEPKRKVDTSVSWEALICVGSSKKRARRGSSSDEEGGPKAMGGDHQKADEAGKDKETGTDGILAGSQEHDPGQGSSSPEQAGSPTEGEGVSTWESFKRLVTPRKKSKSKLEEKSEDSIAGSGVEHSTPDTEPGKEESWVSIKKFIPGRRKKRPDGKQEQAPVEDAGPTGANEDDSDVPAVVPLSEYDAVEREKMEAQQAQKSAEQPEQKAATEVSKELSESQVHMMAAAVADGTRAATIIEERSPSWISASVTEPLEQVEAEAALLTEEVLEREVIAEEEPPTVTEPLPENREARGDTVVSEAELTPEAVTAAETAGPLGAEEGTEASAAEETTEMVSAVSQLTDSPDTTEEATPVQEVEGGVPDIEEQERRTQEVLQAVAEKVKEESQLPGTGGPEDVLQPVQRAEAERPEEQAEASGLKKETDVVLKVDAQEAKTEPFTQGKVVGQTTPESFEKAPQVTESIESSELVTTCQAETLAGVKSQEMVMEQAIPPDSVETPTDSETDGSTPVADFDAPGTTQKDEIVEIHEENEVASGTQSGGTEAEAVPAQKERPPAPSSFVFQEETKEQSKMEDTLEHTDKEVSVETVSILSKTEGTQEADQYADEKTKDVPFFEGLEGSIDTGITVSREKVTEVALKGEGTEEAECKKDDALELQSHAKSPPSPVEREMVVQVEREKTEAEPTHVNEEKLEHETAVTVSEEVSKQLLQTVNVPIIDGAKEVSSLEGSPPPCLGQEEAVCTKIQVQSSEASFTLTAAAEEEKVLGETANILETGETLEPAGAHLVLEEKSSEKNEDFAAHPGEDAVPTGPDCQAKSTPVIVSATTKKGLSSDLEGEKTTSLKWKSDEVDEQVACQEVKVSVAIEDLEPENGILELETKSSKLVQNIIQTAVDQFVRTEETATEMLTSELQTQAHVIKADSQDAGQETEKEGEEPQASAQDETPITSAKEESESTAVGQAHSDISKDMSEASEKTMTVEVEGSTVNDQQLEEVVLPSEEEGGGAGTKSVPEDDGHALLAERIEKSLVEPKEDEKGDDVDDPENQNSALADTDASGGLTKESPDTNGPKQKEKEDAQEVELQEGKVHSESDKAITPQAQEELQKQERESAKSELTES
UniProt Q53H12, 41-61: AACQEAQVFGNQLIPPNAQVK
UniProt Q9UJX3: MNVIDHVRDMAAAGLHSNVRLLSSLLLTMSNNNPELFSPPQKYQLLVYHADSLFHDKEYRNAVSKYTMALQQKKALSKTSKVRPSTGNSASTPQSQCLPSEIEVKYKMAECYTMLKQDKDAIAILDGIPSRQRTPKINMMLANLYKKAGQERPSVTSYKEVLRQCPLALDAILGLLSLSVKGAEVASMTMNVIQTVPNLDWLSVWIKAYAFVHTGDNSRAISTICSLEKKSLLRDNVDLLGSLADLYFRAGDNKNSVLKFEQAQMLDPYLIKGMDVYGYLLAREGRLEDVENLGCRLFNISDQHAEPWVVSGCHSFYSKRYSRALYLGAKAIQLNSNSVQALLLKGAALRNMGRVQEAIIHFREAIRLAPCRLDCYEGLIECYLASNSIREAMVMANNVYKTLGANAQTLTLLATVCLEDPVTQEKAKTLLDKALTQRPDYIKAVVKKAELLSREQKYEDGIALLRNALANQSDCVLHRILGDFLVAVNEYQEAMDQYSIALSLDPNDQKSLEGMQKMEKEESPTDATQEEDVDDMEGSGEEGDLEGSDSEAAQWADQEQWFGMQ
UniProt Q9Y305: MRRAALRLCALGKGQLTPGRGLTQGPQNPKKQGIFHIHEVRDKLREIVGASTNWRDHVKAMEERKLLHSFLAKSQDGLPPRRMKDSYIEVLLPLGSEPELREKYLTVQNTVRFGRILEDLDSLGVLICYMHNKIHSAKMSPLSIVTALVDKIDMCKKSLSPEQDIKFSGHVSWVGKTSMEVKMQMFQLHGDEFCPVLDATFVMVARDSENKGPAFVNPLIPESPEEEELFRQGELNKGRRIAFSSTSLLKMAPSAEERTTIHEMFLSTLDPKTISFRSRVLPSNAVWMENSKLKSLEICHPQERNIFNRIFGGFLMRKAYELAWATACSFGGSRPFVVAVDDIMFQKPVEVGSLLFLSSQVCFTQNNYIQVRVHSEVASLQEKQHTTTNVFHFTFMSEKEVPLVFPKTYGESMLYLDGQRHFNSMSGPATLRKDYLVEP
UniProt Q9BUB4: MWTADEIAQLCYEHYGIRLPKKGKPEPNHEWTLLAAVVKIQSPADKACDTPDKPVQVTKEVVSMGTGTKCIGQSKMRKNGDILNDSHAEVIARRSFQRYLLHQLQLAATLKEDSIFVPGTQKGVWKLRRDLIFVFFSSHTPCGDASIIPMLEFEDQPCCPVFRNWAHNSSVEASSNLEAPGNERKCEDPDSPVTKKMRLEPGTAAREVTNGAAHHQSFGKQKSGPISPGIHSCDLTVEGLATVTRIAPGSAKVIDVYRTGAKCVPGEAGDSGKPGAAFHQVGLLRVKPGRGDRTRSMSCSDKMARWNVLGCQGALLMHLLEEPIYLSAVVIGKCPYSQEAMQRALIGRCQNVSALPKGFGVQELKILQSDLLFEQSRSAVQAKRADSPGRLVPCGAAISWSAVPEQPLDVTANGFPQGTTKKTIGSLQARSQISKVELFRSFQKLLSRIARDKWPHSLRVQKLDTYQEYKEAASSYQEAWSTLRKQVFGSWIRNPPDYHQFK
UniProt Q9H6R3: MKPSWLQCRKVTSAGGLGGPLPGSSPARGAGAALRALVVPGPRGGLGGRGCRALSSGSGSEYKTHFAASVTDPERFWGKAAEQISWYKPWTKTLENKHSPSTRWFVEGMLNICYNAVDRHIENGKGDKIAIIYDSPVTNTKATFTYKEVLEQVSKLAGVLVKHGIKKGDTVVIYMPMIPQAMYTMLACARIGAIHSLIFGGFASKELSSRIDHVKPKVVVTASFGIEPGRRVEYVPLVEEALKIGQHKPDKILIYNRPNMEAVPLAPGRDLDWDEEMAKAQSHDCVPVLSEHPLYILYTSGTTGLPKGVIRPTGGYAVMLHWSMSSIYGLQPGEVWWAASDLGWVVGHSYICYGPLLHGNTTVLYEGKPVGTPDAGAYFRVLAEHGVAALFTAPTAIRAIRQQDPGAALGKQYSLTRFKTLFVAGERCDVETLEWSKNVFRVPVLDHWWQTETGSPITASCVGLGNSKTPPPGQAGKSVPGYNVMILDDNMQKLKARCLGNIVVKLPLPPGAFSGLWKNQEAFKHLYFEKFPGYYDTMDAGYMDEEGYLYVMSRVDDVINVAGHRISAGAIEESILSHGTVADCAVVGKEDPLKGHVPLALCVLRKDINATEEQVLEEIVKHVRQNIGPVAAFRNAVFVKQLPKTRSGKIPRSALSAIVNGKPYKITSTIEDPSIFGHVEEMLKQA

How the values were obtained:
[1] = compound: ClCC(=O)N[C@@H]1CCCc2ccccc12; assay: log2 mean competition ratio of IA-DTB cysteine labelling (DMSO/compound) (log2 ratio); higher = stronger cysteine engagement by compound; details: treatment time: 4 h, cell line lysate: HEK293T
Description: (§1)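 IA-DTB competitive cysteine chemoproteomics in HEK293T RIPA lysate. Lysates were treated with compound 29 or 30 at 50 or 200 µM for 4 h, then IA-DTB (500 µM, 1 h), trypsin-digested, NeutrAvidin-enriched and analysed by diaPASEF. Competition ratio = intensity DMSO / intensity compound (n=4 treated, n=64 DMSO); binding: mean log2 CR ≥ 1 and p ≤ 0.05 plus QC filters. Target is the cysteine site.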

[2] = compound: ClCC(=O)N[C@H]1CCCc2ccccc12; assay: as above; details: treatment time: 4 h, cell line lysate: HEK293T
Description: as §1

Row | Target | log2 mean competition ratio ([1]; 50 µM) | log2 mean competition ratio ([1]; 200 µM) | log2 mean competition ratio ([2]; 50 µM) | log2 mean competition ratio ([2]; 200 µM)
1 | AMOT C617 (UniProt Q4VCS5) | 0.322 | 0.0819 | 0.43 | 0.0189
2 | ANKHD1 C873 | 0.517 | -0.299 | 0.519 | -0.32
3 | AHNAK C1900(C1967) (UniProt Q09666) | -0.307 | 0.0257 | – | –
4 | AKAP11 C1290 (UniProt Q9UKA4) | -0.21 | -0.114 | – | –
5 | AHNAK C2806 (UniProt Q09666) | -0.268 | -0.145 | -0.182 | -0.0487
6 | ADAR C499 (UniProt P55265) | -0.0129 | -0.173 | 0.911 | 0.194
7 | AKAP8L C128 (UniProt Q9ULX6) | 0.167 | 0.0846 | -0.0408 | 0.267
8 | AKAP9 C1782 (UniProt Q99996) | -0.144 | 0.17 | -0.168 | -0.277
9 | ALDOA C202 | -0.184 | 0.667 | 0.11 | 0.501
10 | ACBD3 C487 (UniProt Q9H3P7) | 0.0954 | -0.273 | -0.147 | -0.174
11 | AKAP12 C1314 (UniProt Q02952) | -0.322 | -0.091 | -0.416 | 0.143
12 | AGK C43 (UniProt Q53H12) | -0.00382 | -0.168 | 0.546 | -0.0137
13 | AGK C408 (UniProt Q53H12) | -0.0999 | -0.198 | -0.239 | -0.0144
14 | ANK3 C1409 (UniProt Q12955) | -0.0806 | -0.0339 | -0.145 | 0.114
15 | ANAPC7 C475 (UniProt Q9UJX3) | 0.199 | 0.977 | 0.348 | 0.806
16 | ACOT9 C299 (UniProt Q9Y305) | 0.0996 | 0.0534 | -0.099 | 0.0194
17 | ADAMTS1 C892 | -0.168 | 0.626 | 0.0953 | 0.249
18 | ALDOA C339 | 0.0767 | 0.368 | 0.141 | 0.496
19 | ADAT1 C48 (UniProt Q9BUB4) | -0.232 | -0.261 | -0.279 | -0.268
20 | AFF3 C403 | 0.0852 | 0.112 | -0.0703 | 0.000115
21 | ACSS3 C498 (UniProt Q9H6R3) | 0.218 | -0.0813 | 0.464 | -0.0386
22 | AKAP9 C1144 (UniProt Q99996) | -0.0975 | -0.158 | -0.0657 | -0.102
23 | ALKBH1 C129 (UniProt Q13686) | 0.264 | -0.105 | 0.0283 | -0.335
24 | ALDH1L2 C558 (UniProt Q3SY69) | 0.0792 | 0.0149 | -0.0669 | -0.0539

Single entries from the list.
ADAT1 C48 (UniProt Q9BUB4) | log2 mean competition ratio ([1]; 50 µM): -0.232
AGK C43 (UniProt Q53H12) | log2 mean competition ratio ([2]; 200 µM): -0.0137
